Results taken from PubChem BioAssay AID1487 (National Center for Advancing Translational Sciences (NCATS), 2009).
The other results are listed elsewhere or left out. Further columns of the screen follow, without active or inactive calls. Most of these compounds were active or inconclusive in the main read-out, so they are no random draw. Words in brackets tell the shape of the fitted curve; partial curves, single points and poor fits give uncertain potencies.

Experiment: qHTS Assay for Modulators of Lamin A Splicing
Conditions: HeLa LMNA splicing GFP/RFP minigene ratio, 48 h
Summary of the method: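 Read-out is the ratio of GFP to DsRed2 object intensity, acquired by 488 nm laser-scanning cytometry on HeLa lamin A-EGFP minigene reporter cells. Compound incubation 48 hrs at 37 °C in Opti-MEM with 2% FBS; DMSO 0.5% final.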

[1] = measured here: GFP splicing reporter channel
[2] = measured here: RFP viability control channel

SMILES | AC50 [1] | AC50 [2]
CSc1nc2c([nH]c3ccccc32)c(=O)n1-c1ccc(F)cc1 | 11.2 µM [falling, single point] | 12.6 µM [falling, partial curve, poor fit]
S=C1NC2(CCCCC2)Nc2ccccc21 | 0.0447 µM [falling, full curve, poor fit] | 
CC(=O)N(C)C1=C(N2CCOCC2)C(=O)c2ccccc2C1=O |  | 14.1 µM [rising, partial curve]
CCOc1ccc(NC(=O)C(=O)N/N=C/c2ccccc2F)cc1 | 0.562 µM [falling, full curve] | 0.501 µM [falling, partial curve, poor fit]
CC(=O)c1cc(-c2ccccc2)n(CCC(=O)Nc2cc(C)cc(C)c2)c1C |  | 31.6 µM [rising, single point]
CCOCC(=O)Nc1nnc(COc2ccc(Cl)cc2)s1 |  | 12.6 µM [rising, partial curve, poor fit]
O=c1[nH]c2cc(Cl)ccc2n1-c1ccccc1 | 6.31 µM [rising, partial curve, poor fit] | 11.2 µM [rising, partial curve]
O=[N+]([O-])c1ccc(-c2cnc(SC(c3ccccc3)c3ccccc3)[nH]2)cc1 |  | 22.4 µM [rising, single point]
O=C(COCc1cc(-c2ccco2)on1)Nc1ccc(OC(F)(F)F)cc1 |  | 10 µM [falling, partial curve]
COc1cccc(OC)c1C(=O)Nc1ccc2c(c1)CCCN2S(=O)(=O)c1ccc(C)cc1 | 12.6 µM [falling, partial curve, poor fit] | 
COc1ccccc1CN1CCNC(=O)C1CC(=O)N(C)Cc1cnccn1 (centres undefined) | 0.0355 µM [falling, full curve, poor fit] | 
Clc1ccccc1Cn1nnc2c(Nc3ccccc3)ncnc21 | 17.8 µM [rising, partial curve, poor fit] | 14.1 µM [rising, partial curve]
CCOC(=O)c1ccc(NC(=S)NNC(=O)C2(C)CC2(Cl)Cl)cc1 (centres undefined) |  | 25.1 µM [rising, single point]
O=C(NC1CCCC1)c1cc(-c2cccs2)on1 | 35.5 µM [falling, single point] | 4.47 µM [rising, single point]
COc1cccc(/C(C#N)=C/c2c(-c3ccc(Cl)cc3)nc3c(C)cccn23)c1 |  | 22.4 µM [rising, single point]
O=C(Cn1c(=O)c(=O)n(Cc2ccccc2)c2ccc(Cl)cc21)Nc1ccc(F)cc1F |  | 2.82 µM [rising, full curve]
NNC(=O)COc1ncn(-c2ccccc2)n1 | 11.2 µM [rising, single point] | 
COC(=O)c1ccc(NC2(C#N)C(=O)Nc3ccccc32)cc1 (centres undefined) |  | 31.6 µM [rising, single point]

SMILES | AC50 [1] | AC50 [2]
CCOc1ccc(NC(=O)c2ccc(NC(=O)Cc3n[nH]c(=O)c4ccccc34)cc2)cc1 | 0.316 µM [falling, full curve, poor fit] | 0.251 µM [falling, full curve]
CN1CCN(CC(=O)N(C)c2nc(-c3ccccc3)cs2)CC1 |  | 0.282 µM [rising, full curve, poor fit]
O=C(NC(=S)Nc1ccc(Cl)cn1)C(c1ccccc1)c1ccccc1 |  | 35.5 µM [rising, single point]
CCOC(=O)c1sc2ccccc2c1OC(=O)c1ccccc1 |  | 31.6 µM [rising, single point]
COc1cc(-c2c(C#N)c(=O)[nH]c3c2c(C)nn3-c2ccccc2)ccc1O |  | 35.5 µM [rising, single point]
Cc1cc(C)c2nc(NNC(=O)c3cc(-c4cccs4)nc4ccccc34)sc2c1 |  | 14.1 µM [rising, partial curve]
CC(C)(C)NC(=O)C(=O)NNC(=O)C12CC3CC(CC(C3)C1)C2 |  | 1.26 µM [falling, full curve]
Cc1noc(/C=C/c2ccco2)c1S(=O)(=O)N1CCC(C(=O)N2c3ccccc3CC2C)CC1 (centres undefined) |  | 10 µM [rising, partial curve, poor fit]
CCC1C(c2ccccc2)N(C)C(c2ccccc2)CC1(O)c1ccccc1 (centres undefined) | 12.6 µM [falling, partial curve] | 12.6 µM [falling, partial curve, poor fit]
COC(=O)c1ccc(Sc2nnnn2-c2ccccc2)c([N+](=O)[O-])c1 | 17.8 µM [rising, single point] | 
CCCOc1ccc(C(=O)C(CN2CCOCC2)c2ccccc2)cc1 (centres undefined) | 35.5 µM [falling, single point] | 35.5 µM [falling, single point]
COc1ccccc1N(C(=O)c1ccncc1)c1nc(-c2ccc([N+](=O)[O-])cc2)cs1 | 20 µM [rising, single point] | 31.6 µM [rising, single point]
Cc1ccc(NC(=S)N(CCCN2CCOCC2)Cc2ccco2)cc1Cl | 15.8 µM [rising, single point] | 15.8 µM [rising, single point]
COC(=O)c1c(NC(NC(=O)C(C)C)C(Cl)(Cl)Cl)sc2c1CCCC2 (centres undefined) | 31.6 µM [rising, single point] | 35.5 µM [rising, single point]
CSC(SC)=C(C#N)C(=O)c1ccccc1 | 3.16 µM [falling, partial curve] | 3.16 µM [falling, full curve]
COC(=O)c1ccc(CSc2nnc3sc4ccccc4n23)o1 | 1.58 µM [falling, partial curve, poor fit] | 
CCN1C(=Nc2ccc(Cl)cc2)SC/C1=C\C(=O)OC |  | 15.8 µM [rising, single point]
CC1CN(S(=O)(=O)c2ccc(C(=O)Nc3nc(-c4cc5ccccc5o4)cs3)cc2)CC(C)O1 (centres undefined) | 0.562 µM [rising, full curve, poor fit] | 0.891 µM [rising, full curve]

Record cards, as listed above:
CCN1C(=Nc2ccc(Cl)cc2)SC/C1=C\C(=O)OC as listed: AC50 [2]: 15.8 µM [rising, single point]
COc1cc(-c2c(C#N)c(=O)[nH]c3c2c(C)nn3-c2ccccc2)ccc1O as listed: AC50 [2]: 35.5 µM [rising, single point]
